{"source": "the supplement of paper PMC9135407", "system": "primary human hepatic stellate cells (donor 1)", "experiment": "percent Bodipy-positive cells; higher = more lipid droplet accumulation", "conditions": "48 h", "key": {"[1]": {"conditions": "library stock concentration: 10 mM"}, "[2]": {"conditions": "library stock concentration: 3.33 mM"}, "[3]": {"conditions": "library stock concentration: 1 mM"}, "[4]": {"conditions": "library stock concentration: 80 uM"}, "[5]": {"conditions": "library stock concentration: 400 uM"}, "[6]": {"conditions": "library stock concentration: 2 mM"}}, "note": "Values joined by “and” are separate entries in the source; they are usually repeats but may differ in a detail not shown here. Equal entries are not always repeated. Structures can show the parent of a compound that is named as a salt. ± gives the standard deviation of the averaged measurements. This is one part of the list. Plates or batches differ in their baseline, so values are only roughly comparable.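 Assay uses culture-activated primary human stellate myofibroblasts; lipid droplet recovery indicates inactivation. Measured: proportion of Hoechst-counted cells over a plate-specific Bodipy cutoff, duplicate wells, DMSO and nortriptyline as per-plate negative and positive controls. A hit scores, control-normalized, above the plate's top-tenth-percentile nortriptyline wells or ranks among its three best wells. Final well concentrations not reported.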"}
{"compound": "CN1[C@@H]2CC[C@H]1C[C@@H](OC(c1ccccc1)c1ccccc1)C2", "note": "[Cogentin Mesylate]", "values": [{"measurement": "percent Bodipy-positive cells", "setting": "[1]", "value": "90.6 ± 2.4", "unit": "%"}]}
{"compound": "CN1[C@@H]2CC[C@H]1C[C@@H](OC(c1ccccc1)c1ccccc1)C2", "note": "[Benztropine]", "values": [{"measurement": "percent Bodipy-positive cells", "setting": "library stock concentration: 4.9 mM", "value": "18.3 ± 4.4", "unit": "%"}, {"measurement": "percent Bodipy-positive cells", "setting": "[1]", "value": "51.3 ± 6", "unit": "%"}]}
{"compound": "CN1[C@@H]2CC[C@H]1C[C@@H](OC(c1ccccc1)c1ccccc1)C2", "note": "[Benztropine mesylate]", "values": [{"measurement": "percent Bodipy-positive cells", "setting": "[2]", "value": "26.7 ± 5.7", "unit": "%"}]}
{"compound": "C=C1C(=CC=C2CCC[C@]3(C)[C@@H]([C@H](C)CCCC(C)C)CC[C@@H]23)C[C@@H](O)C[C@@H]1O", "note": "[Alfacalcidol]", "values": [{"measurement": "percent Bodipy-positive cells", "setting": "[1]", "value": "99.14 ± 0.42", "unit": "%"}]}
{"compound": "C[C@@H]1O[C@@H](OC[C@H]2O[C@@H](Oc3c(-c4ccc(O)c(O)c4)oc4cc(O)cc(O)c4c3=O)[C@H](O)[C@@H](O)[C@@H]2O)[C@H](O)[C@H](O)[C@H]1O", "note": "[Rutin]", "values": [{"measurement": "percent Bodipy-positive cells", "setting": "[2]", "value": "8.12 ± 1.7", "unit": "%"}, {"measurement": "percent Bodipy-positive cells", "setting": "[1]", "value": "11.7 ± 2.2", "unit": "%"}]}
{"compound": "C[C@@H]1O[C@@H](OC[C@H]2O[C@@H](Oc3c(-c4ccc(O)c(O)c4)oc4cc(O)cc(O)c4c3=O)[C@H](O)[C@@H](O)[C@@H]2O)[C@H](O)[C@H](O)[C@H]1O", "values": [{"measurement": "percent Bodipy-positive cells", "setting": "[1]", "value": "10.6 ± 5.9", "unit": "%"}]}
{"compound": "CCCCC[C@H](O)CC[C@@H]1[C@H]2Cc3cccc(OCC(=O)O)c3C[C@H]2C[C@H]1O", "note": "[Treprostinil]", "values": [{"measurement": "percent Bodipy-positive cells", "setting": "[3]", "value": "21.4 ± 2.1", "unit": "%"}]}
{"compound": "Cc1nn(C)c(COc2ccc(N3CCN(S(=O)(=O)N(C)C)CC3)cc2)c1-c1cccc2c(CCCOc3cccc4ccccc34)c(C(=O)O)n(CCN3CCOCC3)c12", "values": [{"measurement": "percent Bodipy-positive cells", "setting": "[4]", "value": "9.74 ± 5.5", "unit": "%"}, {"measurement": "percent Bodipy-positive cells", "setting": "[5]", "value": "7.54 ± 0.93", "unit": "%"}, {"measurement": "percent Bodipy-positive cells", "setting": "[6]", "value": "8.56 ± 2.8", "unit": "%"}, {"measurement": "percent Bodipy-positive cells", "setting": "[1]", "value": "25.9 ± 9.8", "unit": "%"}]}
{"compound": "CCCC(=O)Nc1ccc(OCC(O)CNC(C)C)c(C(C)=O)c1", "note": "(stereo not given) [Acebutolol HCl]", "values": [{"measurement": "percent Bodipy-positive cells", "setting": "[2]", "value": "8.29 ± 1.7", "unit": "%"}, {"measurement": "percent Bodipy-positive cells", "setting": "[1]", "value": "22.4 ± 5.8", "unit": "%"}]}
{"compound": "CCCC(=O)Nc1ccc(OCC(O)CNC(C)C)c(C(C)=O)c1", "note": "(stereo not given) [Acebutolol hydrochloride]", "values": [{"measurement": "percent Bodipy-positive cells", "value": "25.3 ± 7.4", "unit": "%"}, {"measurement": "percent Bodipy-positive cells", "setting": "library stock concentration: 5.4 mM", "value": "13 ± 5.1", "unit": "%"}, {"measurement": "percent Bodipy-positive cells", "setting": "[1]", "value": "16.9 ± 11", "unit": "%"}]}
{"compound": "COc1ccnc2[nH]cc(C(=O)C(=O)N3CCN(C(=O)c4ccccc4)C[C@H]3C)c12", "values": [{"measurement": "percent Bodipy-positive cells", "setting": "[2]", "value": "8.08 ± 2.4", "unit": "%"}, {"measurement": "percent Bodipy-positive cells", "setting": "[1]", "value": "17.8 ± 0.66", "unit": "%"}]}
{"compound": "CCCCCCCCCCCCCCCCO", "note": "[1-Hexadecanol]", "values": [{"measurement": "percent Bodipy-positive cells", "setting": "[2]", "value": "7.32 ± 1.4", "unit": "%"}, {"measurement": "percent Bodipy-positive cells", "setting": "[1]", "value": "33.3 ± 8.8", "unit": "%"}]}
{"compound": "CN(C)C(=O)N=NC(=O)N(C)C", "note": "[N,N,N',N'-Tetramethylazodicarboxamide]", "values": [{"measurement": "percent Bodipy-positive cells", "setting": "[1]", "value": "41.4 ± 3.3", "unit": "%"}]}
{"compound": "CCN1/C(=C/C(C)=O)Sc2ccc(OC)cc21", "values": [{"measurement": "percent Bodipy-positive cells", "setting": "[4]", "value": "8.66 ± 6.2", "unit": "%"}, {"measurement": "percent Bodipy-positive cells", "setting": "[5]", "value": "7.81 ± 1.9", "unit": "%"}, {"measurement": "percent Bodipy-positive cells", "setting": "[6]", "value": "10.1 ± 3.3", "unit": "%"}, {"measurement": "percent Bodipy-positive cells", "setting": "[1]", "value": "7.08% and 31.5%"}]}
{"compound": "C[C@H]1c2cccc(O)c2C(O)=C2C(=O)[C@]3(O)C(O)=C(C(N)=O)C(=O)[C@@H](N(C)C)[C@@H]3[C@@H](O)[C@@H]21", "note": "[Doxycycline Hyclate]", "values": [{"measurement": "percent Bodipy-positive cells", "setting": "[2]", "value": "8.68 ± 0.75", "unit": "%"}, {"measurement": "percent Bodipy-positive cells", "setting": "[1]", "value": "36 ± 3.8", "unit": "%"}]}
{"compound": "Nc1nc(=O)c2c([nH]1)NCC(CNc1ccc(C(=O)N[C@@H](CCC(=O)O)C(=O)O)cc1)N2C=O", "note": "(stereo not given in full) [Leucovorin calcium]", "values": [{"measurement": "percent Bodipy-positive cells", "setting": "[1]", "value": "16.9 ± 0.56", "unit": "%"}]}
{"compound": "C/N=C(/NC#N)NCCSCc1csc(NC(=N)N)n1", "note": "[Tiotidine]", "values": [{"measurement": "percent Bodipy-positive cells", "setting": "library stock concentration: 6.4 mM", "value": "7.58 ± 0.72", "unit": "%"}, {"measurement": "percent Bodipy-positive cells", "setting": "[1]", "value": "10.7 ± 0.65", "unit": "%"}]}
{"compound": "COc1ccc2nc3cc(Cl)ccc3c(Nc3cc(CN4CCCC4)c(O)c(CN4CCCC4)c3)c2n1", "values": [{"measurement": "percent Bodipy-positive cells", "setting": "[1]", "value": "93.7 ± 1.6", "unit": "%"}]}
{"compound": "C=CCc1ccccc1OCC(O)CNC(C)C", "note": "(stereo not given) [Alprenolol hydrochloride]", "values": [{"measurement": "percent Bodipy-positive cells", "value": "60.8 ± 3.1", "unit": "%"}, {"measurement": "percent Bodipy-positive cells", "setting": "[1]", "value": "78.3 ± 13", "unit": "%"}]}
{"compound": "C=CCc1ccccc1OCC(O)CNC(C)C", "note": "(stereo not given) [Alprenolol HCl]", "values": [{"measurement": "percent Bodipy-positive cells", "setting": "library stock concentration: 8 mM", "value": "33.8 ± 1.2", "unit": "%"}]}
{"compound": "Oc1c(Cl)cc(Cl)cc1Sc1cc(Cl)cc(Cl)c1O", "note": "[Bithionate sodium]", "values": [{"measurement": "percent Bodipy-positive cells", "setting": "library stock concentration: 5 mM", "value": "9.56 ± 2.3", "unit": "%"}]}
{"compound": "Oc1c(Cl)cc(Cl)cc1Sc1cc(Cl)cc(Cl)c1O", "note": "[Bithionol]", "values": [{"measurement": "percent Bodipy-positive cells", "setting": "[1]", "value": "12.8 ± 3.3", "unit": "%"}]}
{"compound": "CC(=O)OC(C)C[N+](C)(C)C", "note": "(stereo not given) [Methacholine chloride]", "values": [{"measurement": "percent Bodipy-positive cells", "value": "9.14 ± 3.7", "unit": "%"}, {"measurement": "percent Bodipy-positive cells", "setting": "[1]", "value": "14.7 ± 2.5", "unit": "%"}]}
{"compound": "CC(=O)OC(C)C[N+](C)(C)C", "note": "(stereo not drawn) [Acetyl-beta-methylcholine chloride]", "values": [{"measurement": "percent Bodipy-positive cells", "setting": "[1]", "value": "48.3 ± 9.8", "unit": "%"}]}
{"compound": "CCCCOc1ccc(CC(=O)NO)cc1", "note": "[Bufexamac]", "values": [{"measurement": "percent Bodipy-positive cells", "value": "22.5 ± 6.6", "unit": "%"}, {"measurement": "percent Bodipy-positive cells", "setting": "[2]", "value": "7.98 ± 3.1", "unit": "%"}, {"measurement": "percent Bodipy-positive cells", "setting": "[1]", "value": "13.1% and 18.4%"}]}
{"compound": "Cc1cc(C)cc(NC(=O)Cc2ccc(OC(C)(C)C(=O)O)cc2)c1", "note": "[Efaproxiral Sodium]", "values": [{"measurement": "percent Bodipy-positive cells", "setting": "[2]", "value": "13.5 ± 2.2", "unit": "%"}, {"measurement": "percent Bodipy-positive cells", "setting": "[1]", "value": "30.2 ± 4.8", "unit": "%"}]}
{"compound": "CCCCC[C@H](CC(=O)NO)C(=O)N[C@H](C(=O)N1CCC[C@H]1CO)C(C)C", "note": "[Actinonin]", "values": [{"measurement": "percent Bodipy-positive cells", "setting": "[1]", "value": "38.4 ± 8.4", "unit": "%"}]}
{"compound": "Cc1ccc(O)c([C@H](CCN(C(C)C)C(C)C)c2ccccc2)c1", "note": "[Tolterodine tartrate]", "values": [{"measurement": "percent Bodipy-positive cells", "setting": "[2]", "value": "31.2 ± 5.9", "unit": "%"}, {"measurement": "percent Bodipy-positive cells", "setting": "[1]", "value": "80.1 ± 12", "unit": "%"}]}
{"compound": "Cc1ccc(O)c([C@H](CCN(C(C)C)C(C)C)c2ccccc2)c1", "values": [{"measurement": "percent Bodipy-positive cells", "setting": "[1]", "value": "52.04 ± 0.51", "unit": "%"}]}
{"compound": "Cc1nc(N=Nc2ccc(S(=O)(=O)O)cc2S(=O)(=O)O)c(COP(=O)(O)O)c(C=O)c1O", "values": [{"measurement": "percent Bodipy-positive cells", "setting": "[1]", "value": "8.42 ± 1.4", "unit": "%"}]}
{"compound": "O=C(O)c1cc(=O)c2c(OCC(O)COc3cccc4oc(C(=O)O)cc(=O)c34)cccc2o1", "note": "[Cromolyn Sodium]", "values": [{"measurement": "percent Bodipy-positive cells", "setting": "[1]", "value": "47.7 ± 8.7", "unit": "%"}]}
{"compound": "O=C(O)c1cc(=O)c2c(OCC(O)COc3cccc4oc(C(=O)O)cc(=O)c34)cccc2o1", "note": "[Cromolyn sodium]", "values": [{"measurement": "percent Bodipy-positive cells", "setting": "[1]", "value": "11.233 ± 0.0092", "unit": "%"}]}
{"compound": "O=C(O)c1cc(=O)c2c(OCC(O)COc3cccc4oc(C(=O)O)cc(=O)c34)cccc2o1", "note": "[Cromolyn disodium salt]", "values": [{"measurement": "percent Bodipy-positive cells", "value": "16.6 ± 11", "unit": "%"}]}
{"compound": "CCCCC[C@H](O)/C=C/[C@@H]1[C@H](C/C=C\\CCCC(=O)O)[C@H](O)C[C@H]1O", "note": "[8-iso Prostaglandin F2.beta.]", "values": [{"measurement": "percent Bodipy-positive cells", "setting": "[3]", "value": "15.1 ± 1.9", "unit": "%"}]}
